Laboratory results as given in patent US10610564B2, “IRGM and precision autophagy controls for antimicrobial and inflammatory disease states and methods of detection of autophagy” (STC.UNM, priority 2015, dated 2020).

System: autophagy
Assay: Autophagy assays identifying autophagy modulators
Assay type: cell-based

## CCN(CC)CCOC(=O)C1(C2CCCCC2)CCCCC1 [dicyclomine]
  activity as autophagy modulator: agonists or inducers of autophagy
